Data taken from article PMC5996148.
Values joined by “and” are separate entries in the source; they are usually repeats but may differ in a detail not shown here. Identical values can stand only once. The list shows a part of the results. For some assays here: Construct or isoform of the protein are uncertain.

Sequences of proteins named here, by UniProt entry; tags and fusion partners are left off. A change or cut given only in a name is not applied to a line headed by its entry.
UniProt Q8IYD8: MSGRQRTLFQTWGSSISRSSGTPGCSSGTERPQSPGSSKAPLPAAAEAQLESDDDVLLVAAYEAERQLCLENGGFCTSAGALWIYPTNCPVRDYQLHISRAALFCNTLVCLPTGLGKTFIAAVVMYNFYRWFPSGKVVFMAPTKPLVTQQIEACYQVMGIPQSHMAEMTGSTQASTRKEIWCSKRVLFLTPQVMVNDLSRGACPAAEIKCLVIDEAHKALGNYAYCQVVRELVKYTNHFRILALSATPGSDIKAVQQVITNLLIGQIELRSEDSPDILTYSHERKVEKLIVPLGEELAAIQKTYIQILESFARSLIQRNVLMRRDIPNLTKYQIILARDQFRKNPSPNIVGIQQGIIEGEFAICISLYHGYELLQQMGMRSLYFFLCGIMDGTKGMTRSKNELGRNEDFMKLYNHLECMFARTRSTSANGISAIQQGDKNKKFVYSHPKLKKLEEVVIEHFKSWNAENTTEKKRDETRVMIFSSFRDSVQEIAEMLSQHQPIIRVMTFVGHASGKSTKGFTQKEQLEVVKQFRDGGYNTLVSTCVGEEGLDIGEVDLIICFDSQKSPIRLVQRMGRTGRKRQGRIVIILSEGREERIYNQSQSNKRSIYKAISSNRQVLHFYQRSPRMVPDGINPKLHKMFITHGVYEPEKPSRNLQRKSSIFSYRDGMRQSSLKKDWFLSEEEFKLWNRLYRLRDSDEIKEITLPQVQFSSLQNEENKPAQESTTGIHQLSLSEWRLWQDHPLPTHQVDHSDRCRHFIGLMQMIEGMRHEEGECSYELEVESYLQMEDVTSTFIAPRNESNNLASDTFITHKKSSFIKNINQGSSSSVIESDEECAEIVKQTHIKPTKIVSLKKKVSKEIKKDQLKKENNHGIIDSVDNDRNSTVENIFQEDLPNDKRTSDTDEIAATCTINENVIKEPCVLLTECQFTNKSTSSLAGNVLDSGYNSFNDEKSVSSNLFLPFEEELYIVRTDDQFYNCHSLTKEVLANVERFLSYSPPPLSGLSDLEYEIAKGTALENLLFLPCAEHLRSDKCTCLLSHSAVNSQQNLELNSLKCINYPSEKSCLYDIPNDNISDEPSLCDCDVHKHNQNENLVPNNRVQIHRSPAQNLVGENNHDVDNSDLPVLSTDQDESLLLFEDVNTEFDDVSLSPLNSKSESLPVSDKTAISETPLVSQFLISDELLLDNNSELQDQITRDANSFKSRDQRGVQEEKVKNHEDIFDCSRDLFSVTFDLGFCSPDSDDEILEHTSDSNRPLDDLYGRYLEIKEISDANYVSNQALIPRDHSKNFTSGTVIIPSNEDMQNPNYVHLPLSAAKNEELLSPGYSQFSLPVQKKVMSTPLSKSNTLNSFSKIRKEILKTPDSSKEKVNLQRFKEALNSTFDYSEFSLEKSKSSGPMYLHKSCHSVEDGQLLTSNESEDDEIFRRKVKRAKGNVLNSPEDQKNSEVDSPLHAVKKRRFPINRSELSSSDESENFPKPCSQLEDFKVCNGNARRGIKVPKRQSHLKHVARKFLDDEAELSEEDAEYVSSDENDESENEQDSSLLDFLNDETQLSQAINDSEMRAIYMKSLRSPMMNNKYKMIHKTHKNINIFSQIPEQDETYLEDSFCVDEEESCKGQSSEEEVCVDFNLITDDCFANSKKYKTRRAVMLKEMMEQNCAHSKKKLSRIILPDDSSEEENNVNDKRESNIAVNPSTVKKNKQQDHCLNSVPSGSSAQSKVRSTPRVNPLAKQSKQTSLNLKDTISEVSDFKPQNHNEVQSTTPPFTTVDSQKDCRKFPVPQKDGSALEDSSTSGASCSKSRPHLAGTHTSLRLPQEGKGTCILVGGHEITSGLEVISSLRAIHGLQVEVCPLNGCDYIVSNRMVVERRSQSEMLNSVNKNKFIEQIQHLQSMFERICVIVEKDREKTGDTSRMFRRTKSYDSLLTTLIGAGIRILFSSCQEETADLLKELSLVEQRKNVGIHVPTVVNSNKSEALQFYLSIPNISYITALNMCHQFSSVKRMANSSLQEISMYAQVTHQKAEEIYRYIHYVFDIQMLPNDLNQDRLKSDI
UniProt P61328: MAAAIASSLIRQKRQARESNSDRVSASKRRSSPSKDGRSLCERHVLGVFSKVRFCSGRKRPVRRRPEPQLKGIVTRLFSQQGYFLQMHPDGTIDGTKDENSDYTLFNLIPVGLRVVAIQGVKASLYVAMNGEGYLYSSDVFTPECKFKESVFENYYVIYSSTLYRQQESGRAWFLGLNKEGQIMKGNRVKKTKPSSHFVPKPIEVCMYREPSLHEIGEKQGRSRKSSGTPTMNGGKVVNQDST

Legend:
Experiment in all cases: protein microarray (ProtoArray v5.0), streptavidin-Alexa Fluor 647
Conditions in all cases: 3'-biotin; 20 mM Tris (pH 7.5), 5 mM MgCl2, 100 mM KCl, 0.1% Tween-20, A/T-rich and random oligonucleotide blockers; temperature not stated; high values mean tight binding
[1] = system: FACT complex subunit SPT16 (human)
[2] = system: FAM106B (human)
[3] = system: FAM136A (human)
[4] = system: FAM26A (human)
[5] = system: FAM3A (human)
[6] = system: FAM44B (human)
[7] = system: FAM80A (human)
[8] = system: FAM82C (human)
[9] = system: FAM9C (human)
[10] = system: FANCG (human)
[11] = system: FANCI (human)
[12] = target: FANCM (UniProt Q8IYD8)
[13] = target: T1, FBXL16 (UniProt Q8N461)
T1 sequence: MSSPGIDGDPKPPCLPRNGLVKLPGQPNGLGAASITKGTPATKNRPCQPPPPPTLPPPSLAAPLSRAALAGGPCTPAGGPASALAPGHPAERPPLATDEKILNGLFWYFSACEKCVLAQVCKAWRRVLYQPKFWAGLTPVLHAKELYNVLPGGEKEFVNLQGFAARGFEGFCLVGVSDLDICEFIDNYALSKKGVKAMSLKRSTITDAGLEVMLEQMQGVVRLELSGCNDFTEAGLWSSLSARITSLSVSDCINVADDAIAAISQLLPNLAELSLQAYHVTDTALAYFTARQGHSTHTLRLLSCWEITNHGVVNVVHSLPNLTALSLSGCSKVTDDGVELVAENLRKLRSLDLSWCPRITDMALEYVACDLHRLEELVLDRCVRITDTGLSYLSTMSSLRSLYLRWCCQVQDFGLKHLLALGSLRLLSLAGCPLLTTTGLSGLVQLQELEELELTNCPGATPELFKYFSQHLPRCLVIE

[14] = target: T2, FBXO36 (UniProt Q8NEA4)
T2 sequence: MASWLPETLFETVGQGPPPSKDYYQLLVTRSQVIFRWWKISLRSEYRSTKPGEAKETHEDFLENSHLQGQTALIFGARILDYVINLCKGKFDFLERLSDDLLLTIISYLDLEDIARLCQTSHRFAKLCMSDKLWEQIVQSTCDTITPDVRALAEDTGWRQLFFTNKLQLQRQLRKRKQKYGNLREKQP

[15] = system: FBXO4 (human)
[16] = system: FBXO6 (human)
[17] = system: FCGR3A (human)
[18] = system: FCRL2 (human)
[19] = system: FDFT1 (human)
[20] = target: FGF12 (UniProt P61328)

Work on “GGTGACAGGGGTATGGGGAGGGG [G4-2 biotinylated (Ct1)]” yielded a binding signal [1] of 6.76 z-score, a binding signal [2] of -0.382 z-score and a binding signal [3] of -0.383 z-score. The binding signal [4] was -0.367 z-score, the binding signal [5] was -0.378 z-score and the binding signal [6] was -0.403 z-score. The binding signal [7] was -0.392 z-score, the binding signal [8] was -0.381 z-score and the binding signal [9] was -0.36 z-score. It also gave a binding signal [10] of -0.388 z-score, a binding signal [11] of -0.395 z-score and a binding signal [12] of 5.42 z-score. For the same sequence, the binding signal [13] was -0.369 z-score, the binding signal [14] was -0.364 z-score and the binding signal [15] was -0.381 z-score. It also gave a binding signal [16] of -0.373 z-score, a binding signal [17] of -0.379 z-score and a binding signal [18] of -0.38 z-score. The binding signal [19] was -0.395 z-score and -0.396 z-score and the binding signal [20] was 5.82 z-score and 6.79 z-score.
